Record: PubChem BioAssay AID1259405 (NCATS, 2018)
Shown is one part, drawn at random, of about 50,000 reagents. About 4,000 of them (8%) were called active. 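Mouse siRNA library applied to hamster cells; one well for each siRNA.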 Entries without a mark were called inactive. The numbers tell different reagents against one gene apart.

- Test: 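Silenced genes that increase secreted GFP made by CHO cells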 (primary screen)
- Cell system: Chinese hamster CHO-K1 ovary cells with stable secreted eGFP expression
- Knock-down reagent: single siRNA against mouse genes, 0.8 pmol siRNA per well (2 µl of 400 nM stock)
- Timing: 3 days
- Detection: 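Per-well intracellular GFP measured by laser scanning cytometry, plus viability from ATP luminescence, each relative to plate median of non-targeting control wells, in %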
- Reading the numbers: GFP, % of control: higher = more GFP per well, higher productivity; viability (ATP), % of control: higher = more viable cells (more ATP)
- Active means: 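Called active when intracellular GFP, relative to negative control, is at or above 120%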

{"gene knocked down":"Lrit1","siRNA no.":1,"GFP, % of control":45.7,"viability (ATP), % of control":45.1}
{"gene knocked down":"Lrit1","siRNA no.":2,"GFP, % of control":64.9,"viability (ATP), % of control":83.7}
{"gene knocked down":"Lrit1","siRNA no.":3,"GFP, % of control":95,"viability (ATP), % of control":93.2}
{"gene knocked down":"Nubp2","siRNA no.":1,"GFP, % of control":"153 (active)","viability (ATP), % of control":95.7}
{"gene knocked down":"Nubp2","siRNA no.":2,"GFP, % of control":50.5,"viability (ATP), % of control":63.3}
{"gene knocked down":"Nubp2","siRNA no.":3,"GFP, % of control":48.6,"viability (ATP), % of control":68.8}
{"gene knocked down":"Tpsab1","siRNA no.":1,"GFP, % of control":57.7,"viability (ATP), % of control":43}
{"gene knocked down":"Tpsab1","siRNA no.":2,"GFP, % of control":53.2,"viability (ATP), % of control":64.7}
{"gene knocked down":"Tpsab1","siRNA no.":3,"GFP, % of control":104,"viability (ATP), % of control":98.6}
{"gene knocked down":"Cdr1os","siRNA no.":1,"GFP, % of control":101,"viability (ATP), % of control":122}
{"gene knocked down":"Cdr1os","siRNA no.":2,"GFP, % of control":92.4,"viability (ATP), % of control":92.9}
{"gene knocked down":"Cdr1os","siRNA no.":3,"GFP, % of control":"141 (active)","viability (ATP), % of control":138}
{"gene knocked down":"Mesp2","siRNA no.":1,"GFP, % of control":66.8,"viability (ATP), % of control":72.9}
{"gene knocked down":"Mesp2","siRNA no.":2,"GFP, % of control":"124 (active)","viability (ATP), % of control":88.1}
{"gene knocked down":"Mesp2","siRNA no.":3,"GFP, % of control":105,"viability (ATP), % of control":77.3}
{"gene knocked down":"Gjb1","siRNA no.":1,"GFP, % of control":61.4,"viability (ATP), % of control":70.1}
{"gene knocked down":"Gjb1","siRNA no.":2,"GFP, % of control":68.9,"viability (ATP), % of control":70.3}
{"gene knocked down":"Gjb1","siRNA no.":3,"GFP, % of control":88.4,"viability (ATP), % of control":114}

Ordered by “viability (ATP), % of control” (high to low): some entries from above.
{"gene knocked down":"Tpsab1","siRNA no.":3,"GFP, % of control":104,"viability (ATP), % of control":98.6}
{"gene knocked down":"Nubp2","siRNA no.":1,"GFP, % of control":"153 (active)","viability (ATP), % of control":95.7}
{"gene knocked down":"Lrit1","siRNA no.":3,"GFP, % of control":95,"viability (ATP), % of control":93.2}
{"gene knocked down":"Lrit1","siRNA no.":2,"GFP, % of control":64.9,"viability (ATP), % of control":83.7}
{"gene knocked down":"Nubp2","siRNA no.":3,"GFP, % of control":48.6,"viability (ATP), % of control":68.8}
{"gene knocked down":"Tpsab1","siRNA no.":2,"GFP, % of control":53.2,"viability (ATP), % of control":64.7}
{"gene knocked down":"Nubp2","siRNA no.":2,"GFP, % of control":50.5,"viability (ATP), % of control":63.3}
{"gene knocked down":"Tpsab1","siRNA no.":1,"GFP, % of control":57.7,"viability (ATP), % of control":43}

Additional records follow.
{"gene knocked down":"Acsf3","siRNA no.":1,"GFP, % of control":"144 (active)","viability (ATP), % of control":100}
{"gene knocked down":"Acsf3","siRNA no.":2,"GFP, % of control":"133 (active)","viability (ATP), % of control":86.7}
{"gene knocked down":"Acsf3","siRNA no.":3,"GFP, % of control":31.8,"viability (ATP), % of control":23}
{"gene knocked down":"C1s1","siRNA no.":1,"GFP, % of control":80.8,"viability (ATP), % of control":87.7}
{"gene knocked down":"C1s1","siRNA no.":2,"GFP, % of control":72,"viability (ATP), % of control":77.8}
{"gene knocked down":"Phlpp1","siRNA no.":1,"GFP, % of control":76.2,"viability (ATP), % of control":75.3}
{"gene knocked down":"Phlpp1","siRNA no.":2,"GFP, % of control":105,"viability (ATP), % of control":45}
{"gene knocked down":"Phlpp1","siRNA no.":3,"GFP, % of control":66.9,"viability (ATP), % of control":104}
{"gene knocked down":"Pomt2","siRNA no.":1,"GFP, % of control":"125 (active)","viability (ATP), % of control":109}
{"gene knocked down":"Pomt2","siRNA no.":2,"GFP, % of control":"124 (active)","viability (ATP), % of control":113}
{"gene knocked down":"Pomt2","siRNA no.":3,"GFP, % of control":76.9,"viability (ATP), % of control":81.3}
{"gene knocked down":"Ptpn22","siRNA no.":1,"GFP, % of control":50.9,"viability (ATP), % of control":47.1}
{"gene knocked down":"Ptpn22","siRNA no.":2,"GFP, % of control":67,"viability (ATP), % of control":65.8}
{"gene knocked down":"Ptpn22","siRNA no.":3,"GFP, % of control":112,"viability (ATP), % of control":74.9}
{"gene knocked down":"Matn3","siRNA no.":1,"GFP, % of control":86.2,"viability (ATP), % of control":133}
{"gene knocked down":"Matn3","siRNA no.":2,"GFP, % of control":"129 (active)","viability (ATP), % of control":85}
{"gene knocked down":"A930018P22Rik","siRNA no.":1,"GFP, % of control":117,"viability (ATP), % of control":62.1}
{"gene knocked down":"A930018P22Rik","siRNA no.":2,"GFP, % of control":59.2,"viability (ATP), % of control":47.9}
{"gene knocked down":"A930018P22Rik","siRNA no.":3,"GFP, % of control":70.8,"viability (ATP), % of control":67.6}
{"gene knocked down":"Polr1a","siRNA no.":1,"GFP, % of control":"151 (active)","viability (ATP), % of control":121}
{"gene knocked down":"Polr1a","siRNA no.":2,"GFP, % of control":66.3,"viability (ATP), % of control":74.7}
{"gene knocked down":"Polr1a","siRNA no.":3,"GFP, % of control":110,"viability (ATP), % of control":83.7}
{"gene knocked down":"Polr1a","siRNA no.":4,"GFP, % of control":53.8,"viability (ATP), % of control":85.5}
{"gene knocked down":"Polr1a","siRNA no.":5,"GFP, % of control":85.2,"viability (ATP), % of control":86.7}
{"gene knocked down":"Jak2","siRNA no.":1,"GFP, % of control":106,"viability (ATP), % of control":63.4}
{"gene knocked down":"Ing4","siRNA no.":1,"GFP, % of control":84.5,"viability (ATP), % of control":87.1}
{"gene knocked down":"Ing4","siRNA no.":2,"GFP, % of control":53.5,"viability (ATP), % of control":42}
{"gene knocked down":"Vti1b","siRNA no.":1,"GFP, % of control":107,"viability (ATP), % of control":88.9}
{"gene knocked down":"Vti1b","siRNA no.":2,"GFP, % of control":106,"viability (ATP), % of control":76.1}
{"gene knocked down":"Vti1b","siRNA no.":3,"GFP, % of control":79.1,"viability (ATP), % of control":67.7}
{"gene knocked down":"Abcg3","siRNA no.":1,"GFP, % of control":"125 (active)","viability (ATP), % of control":72.4}
{"gene knocked down":"Abcg3","siRNA no.":2,"GFP, % of control":77.1,"viability (ATP), % of control":82.7}
{"gene knocked down":"Abcg3","siRNA no.":3,"GFP, % of control":75.9,"viability (ATP), % of control":88.4}
{"gene knocked down":"Cyp1b1","siRNA no.":1,"GFP, % of control":55.7,"viability (ATP), % of control":59}
{"gene knocked down":"Cyp1b1","siRNA no.":2,"GFP, % of control":110,"viability (ATP), % of control":62.4}
{"gene knocked down":"Cyp1b1","siRNA no.":3,"GFP, % of control":85.3,"viability (ATP), % of control":69.7}
